Among all 340,000 compounds or so, about 170 (0.05%) were called active. The shares of active, inactive and inconclusive entries below differ from those in the screen. Calls follow the shape of the dose curve; as a rule, active = well fitted inhibition curve with a large enough effect in the signal ratio, with a control signal flat (not every such curve was filed as active); inconclusive = small, poorly fitted or top-dose-only effect, or effect the other way, or a change in a side signal; inactive = flat fitted curve, though single readings scatter; the % refers to the signal ratio. Potencies beside an inconclusive call are fits to weak or partial responses and may not hold up.
Test: qHTS Assay to Find Inhibitors of Chronic Active B-Cell Receptor Signaling;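 as to activity change, negative = inhibition: plate controls were basal doxycycline-induced cells for no effect and cells given 10 µM MG132 for full effect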
Details: ABC-DLBCL IkBa-CBG/CBR reporter, luminescence ratio (green luciferase fused to IkBa over red control in TMD8 lymphoma cells), 4 h; activity change, negative = inhibition: at 46.1 µM (top of the series)
Summary of the method: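 Concentration-response series (up to 46 uM) were applied to TMD8 dual-reporter cells for 4 h at 37C with doxycycline. Green/red ratio, after filter-overlap correction, defined %Activity; red signal alone was normalised to basal cells and zero luminescence.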
Potency is read from the fitted curve at half-maximal effect.

Row | SMILES | activity change, negative = inhibition | Potency
1 | CCOC(=O)c1cccc(NC(=O)N2CCOCC2)c1 | inconclusive: 2.31% | –
2 | CN(C)c1nc(N)nc(-c2ccco2)n1 | inconclusive: 12.8% | –
3 | COc1ccc2sc(-c3ccccc3OC)c(-c3ccc(OC)nc3)c2c1 | – | inconclusive: 20.6 µM [rising, partial curve, poor fit]
4 | CC(C)c1csc(CN2CCN(Cc3ccc(F)cc3)C(CCO)C2)n1 (centres undefined) | inactive | –
5 | Cc1ccc(CNC(=O)C(=O)Nc2c3c(nn2-c2ccc(F)cc2)CSC3)cc1 | inactive | –
6 | Cc1ccc(/C=N/Nc2ccc3ccccc3n2)o1 | inconclusive: 324% | –
7 | COc1cccc(CNC(=O)c2cc(S(=O)(=O)N3CCOCC3)cn2C)c1 | inconclusive: -22.8% | –
8 | Cc1cc(C)c(C)c(N=Nc2nc3ccccc3n2C)c1C | inconclusive: -10.7% | –
9 | S=C(Nc1nc2c(s1)CCCC2)NC1CC1 | – | inconclusive: 25.1 µM [falling, single point]
10 | Cc1ccc(C(=O)NCCSC(C)(C)C)cc1 | – | inconclusive: 5.8 µM [rising, single point]
11 | COc1ccc(Oc2cc(C)c3ccccc3n2)cc1 | inconclusive: 2.54% | –
12 | O=C(Nc1c(C(=O)Nc2cccc3ccccc23)cnn1-c1ccccc1)c1ccco1 | inconclusive: -14.5% | –
13 | Cc1cc(-c2n[nH]c(=S)n2/N=C/c2cccs2)n[nH]1 | inactive | –
14 | CS(=O)(=O)N(CC(=O)Nc1ccc2c(c1)OCO2)c1ccc(Cl)cc1 | inconclusive: -15.8% | –
15 | COc1ccc(CN2C(=O)c3ccccc3C2C(=O)NC2CCCC(C)C2C)c(OC)c1 (centres undefined) | – | inconclusive: 0.282 µM [falling, full curve, poor fit]
16 | Cc1ccnc(NC(=O)Nc2ccc3c(c2)N(C)C(=O)CS3)c1 | inactive | –
17 | Cc1noc(C)c1S(=O)(=O)N1CCCC(C(=O)NCCc2ccc(Cl)cc2)C1 (centres undefined) | inconclusive: 9.53% | –
18 | CN(C)c1ccc(-c2nnn(CC(=O)Nc3ccccc3N3CCOCC3)n2)cc1 | inconclusive: -16.2% | –
19 | CCN(CC)c1ccc(NC(=S)NCC2CCCO2)cc1 (centres undefined) | inactive | –
20 | O=C(NC(Cc1c[nH]c2ccccc12)C(=O)O)/C(=C/c1ccco1)NC(=O)c1ccccc1 (centres undefined) | inconclusive: -10.5% | –
21 | O=C1CSC(=S)N1c1cccc(F)c1 | inconclusive: -2.52% | –
22 | CCC(=O)Nc1cccc(-c2ccc(N3CCC(C)CC3)nn2)c1 | – | inconclusive: 3.98 µM [falling, full curve]
23 | N#CC1CCN(C(=O)c2ccc3c(Cl)c4c(nc3c2)CCCC4)CC1 | – | inconclusive: 35.5 µM [falling, single point]
24 | CC(=O)c1c(C)nc2ccc(Br)cc2c1C(=O)O | inconclusive: 2.15% | –
25 | CC(NC(=O)c1sc2ccccc2c1Cl)C1CCCO1 (centres undefined) | inconclusive: -21.7% | –
26 | O=C(c1cccc(S(=O)(=O)N2CCc3ccccc32)c1)N1CCOCC1 | inactive | –
27 | Fc1ccc2nc(Nc3nc4cc5c(cc4s3)OCO5)sc2c1 | inconclusive: -0.0621% | –

Laid out differently: 3 of the compounds above.
Row	SMILES	activity change, negative = inhibition	Potency
6	Cc1ccc(/C=N/Nc2ccc3ccccc3n2)o1	inconclusive: 324%	–
7	COc1cccc(CNC(=O)c2cc(S(=O)(=O)N3CCOCC3)cn2C)c1	inconclusive: -22.8%	–
8	Cc1cc(C)c(C)c(N=Nc2nc3ccccc3n2C)c1C	inconclusive: -10.7%	–

Continued.

Row | SMILES | activity change, negative = inhibition | Potency
28 | COc1cc(NC(=O)Nc2ccc(C)cc2)cc([N+](=O)[O-])c1 | inconclusive: -1.4% | –
29 | COc1ccc(Cc2nnc(SCC(=O)Nc3ccc(C)cc3)n(N)c2=O)cc1 | inconclusive: 5.31% | –
30 | CS(=O)(=O)c1ccc(Cl)c(NC(=O)COC(=O)CNC(=O)c2ccc(Br)o2)c1 | inconclusive: 0.212% | –
31 | Cc1ccc2oc(C(=O)Nc3nnc(CC(C)C)s3)c(C)c2c1 | inactive | –
32 | CC(OC(=O)c1ccc2noc(-c3ccccc3)c2c1)C(N)=O (centres undefined) | – | inconclusive: 35.5 µM [rising, partial curve]
33 | O=c1oc2ccccc2c(Nc2ccccc2)c1CN1CCCCC1 | – | inconclusive: 11.2 µM [falling, partial curve]
34 | CCC1=NN(C(=O)c2cccc([N+](=O)[O-])c2)C(O)(c2ccc(C)cc2)C1 (centres undefined) | inconclusive: -3.8% | –
35 | COc1cccc(C2CC(c3cccc(Br)c3)n3ncnc3N2)c1 (centres undefined) | inactive | –
36 | O=C(Cc1ccc(F)cc1)NCc1ccc2c(c1)CCN2C(=O)c1ccc(F)cc1 | inconclusive: 5.47% | –
37 | Cc1cccc(NC(=O)NCC(c2ccco2)N2CCCCC2)c1 (centres undefined) | inconclusive: 8.52% | –
38 | Cc1cc(C)n(/N=C/c2ccccc2)c(=O)c1C#N | inconclusive: -2.44% | –
39 | Cc1cc(CN(C)C(=O)c2cc(COc3ccc4ncccc4c3)on2)on1 | – | inconclusive: 10 µM [falling, partial curve]
40 | C=CCNC(=S)N1CCN(CCN=Cc2c(C)[nH]n(-c3ccc([N+](=O)[O-])cc3)c2=O)CC1 | – | inconclusive: 20 µM [falling, single point]
41 | O=C(COC(=O)CNC(=O)c1ccc(Cl)cc1Cl)NC(=O)NCc1ccccc1 | inconclusive: 4.15% | –
42 | Cc1nn(-c2ccccc2)c(C)c1C(=O)Oc1ccccc1 | inconclusive: -12.1% | –
43 | Cc1cccc(NC(=O)Nc2nnc(N3CCCCC3C)s2)c1C (centres undefined) | inconclusive: -1.87% | –
44 | COc1ccccc1NC(=O)Nc1ccc(Cc2ccncc2)cc1 | inconclusive: -13.1% | –
45 | CCCNS(=O)(=O)c1ccc(CCC(=O)N2CCN(c3ccc(F)cc3)CC2)cc1 | inconclusive: -2.77% | –
46 | CC(NC(=O)CCCCCCN1C(=O)c2ccccc2C1=O)c1ccc2c(c1)CCCC2 (centres undefined) | inactive | –
47 | NC(=S)N/N=C/c1ncc(C(F)(F)F)cc1Cl | – | inconclusive: 2 µM [falling, partial curve, poor fit]
48 | C=CCNc1nc(N2CCCC2)nc2ccccc12 | inconclusive: 8.65% | –
49 | COc1ccccc1NC(=O)COC(=O)CCS(=O)(=O)c1ccc(C)cc1 | inconclusive: -15.7% | –
50 | COc1ccc(-c2cc(C(=O)NNC(=O)c3csc(N4CCOCC4)n3)c3ccccc3n2)cc1 | inconclusive: -4.75% | –
51 | COC(=O)C1=C(C)N(C)C(C)=C(C(=O)OC)C1c1ccccc1C | inactive | –
52 | CCc1ccc(C(C)NC(=O)c2cc(C)oc2C)cc1 (centres undefined) | inactive | –
53 | Cc1ccc(N(C(=O)c2csnn2)C(C(=O)NC2CCCCC2)c2cccnc2)cc1C (centres undefined) | inactive | –
54 | COc1ccc(CCNC(=O)C(=O)NCC(c2ccco2)S(=O)(=O)c2cccs2)cc1OC (centres undefined) | inconclusive: -3.36% | –
